{
  "sequences": {"note": "Amino acid sequences for entries named in this document (tags omitted). A change or cut given only in a name is not applied to a line headed by its entry.", "UniProt O43324": "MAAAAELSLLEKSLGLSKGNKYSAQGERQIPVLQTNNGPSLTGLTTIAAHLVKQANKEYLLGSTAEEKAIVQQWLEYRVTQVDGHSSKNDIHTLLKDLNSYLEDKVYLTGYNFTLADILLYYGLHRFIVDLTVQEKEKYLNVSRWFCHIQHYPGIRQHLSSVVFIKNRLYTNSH", "UniProt O43196": "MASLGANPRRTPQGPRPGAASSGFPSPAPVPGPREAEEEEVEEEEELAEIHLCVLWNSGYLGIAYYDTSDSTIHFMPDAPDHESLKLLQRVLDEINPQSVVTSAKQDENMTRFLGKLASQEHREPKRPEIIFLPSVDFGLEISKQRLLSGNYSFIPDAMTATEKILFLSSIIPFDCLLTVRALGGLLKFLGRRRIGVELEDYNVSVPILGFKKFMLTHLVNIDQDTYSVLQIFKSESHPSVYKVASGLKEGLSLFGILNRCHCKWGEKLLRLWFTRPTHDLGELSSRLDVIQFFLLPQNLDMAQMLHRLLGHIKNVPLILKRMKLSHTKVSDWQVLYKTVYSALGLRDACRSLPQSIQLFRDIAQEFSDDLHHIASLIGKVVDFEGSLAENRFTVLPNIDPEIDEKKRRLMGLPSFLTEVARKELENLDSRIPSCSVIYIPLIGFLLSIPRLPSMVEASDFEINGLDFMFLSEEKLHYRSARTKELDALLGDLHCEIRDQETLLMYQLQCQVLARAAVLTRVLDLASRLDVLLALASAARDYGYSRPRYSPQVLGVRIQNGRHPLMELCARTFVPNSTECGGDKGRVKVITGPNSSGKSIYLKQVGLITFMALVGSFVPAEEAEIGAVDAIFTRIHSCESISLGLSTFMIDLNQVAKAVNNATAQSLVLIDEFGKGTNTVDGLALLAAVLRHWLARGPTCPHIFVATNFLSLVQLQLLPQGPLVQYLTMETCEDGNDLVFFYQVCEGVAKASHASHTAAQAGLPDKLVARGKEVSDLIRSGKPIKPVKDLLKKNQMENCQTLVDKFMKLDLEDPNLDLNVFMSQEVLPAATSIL", "UniProt O75083": "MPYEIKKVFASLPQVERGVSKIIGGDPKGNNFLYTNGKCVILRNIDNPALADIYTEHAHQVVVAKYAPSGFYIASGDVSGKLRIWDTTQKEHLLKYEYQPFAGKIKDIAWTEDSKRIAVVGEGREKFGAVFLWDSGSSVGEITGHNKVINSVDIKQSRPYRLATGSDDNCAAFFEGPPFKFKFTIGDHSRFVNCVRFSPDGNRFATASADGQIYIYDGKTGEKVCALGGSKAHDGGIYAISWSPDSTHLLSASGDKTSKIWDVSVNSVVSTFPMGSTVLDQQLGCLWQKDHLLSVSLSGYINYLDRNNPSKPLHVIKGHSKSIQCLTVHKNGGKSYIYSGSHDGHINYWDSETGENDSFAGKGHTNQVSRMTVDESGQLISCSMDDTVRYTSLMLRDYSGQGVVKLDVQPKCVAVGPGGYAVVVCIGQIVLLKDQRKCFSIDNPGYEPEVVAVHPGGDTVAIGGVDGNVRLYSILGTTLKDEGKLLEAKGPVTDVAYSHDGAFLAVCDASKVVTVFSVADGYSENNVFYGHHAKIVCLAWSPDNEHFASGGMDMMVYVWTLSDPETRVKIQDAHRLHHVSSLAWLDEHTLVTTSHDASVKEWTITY", "UniProt O60502": "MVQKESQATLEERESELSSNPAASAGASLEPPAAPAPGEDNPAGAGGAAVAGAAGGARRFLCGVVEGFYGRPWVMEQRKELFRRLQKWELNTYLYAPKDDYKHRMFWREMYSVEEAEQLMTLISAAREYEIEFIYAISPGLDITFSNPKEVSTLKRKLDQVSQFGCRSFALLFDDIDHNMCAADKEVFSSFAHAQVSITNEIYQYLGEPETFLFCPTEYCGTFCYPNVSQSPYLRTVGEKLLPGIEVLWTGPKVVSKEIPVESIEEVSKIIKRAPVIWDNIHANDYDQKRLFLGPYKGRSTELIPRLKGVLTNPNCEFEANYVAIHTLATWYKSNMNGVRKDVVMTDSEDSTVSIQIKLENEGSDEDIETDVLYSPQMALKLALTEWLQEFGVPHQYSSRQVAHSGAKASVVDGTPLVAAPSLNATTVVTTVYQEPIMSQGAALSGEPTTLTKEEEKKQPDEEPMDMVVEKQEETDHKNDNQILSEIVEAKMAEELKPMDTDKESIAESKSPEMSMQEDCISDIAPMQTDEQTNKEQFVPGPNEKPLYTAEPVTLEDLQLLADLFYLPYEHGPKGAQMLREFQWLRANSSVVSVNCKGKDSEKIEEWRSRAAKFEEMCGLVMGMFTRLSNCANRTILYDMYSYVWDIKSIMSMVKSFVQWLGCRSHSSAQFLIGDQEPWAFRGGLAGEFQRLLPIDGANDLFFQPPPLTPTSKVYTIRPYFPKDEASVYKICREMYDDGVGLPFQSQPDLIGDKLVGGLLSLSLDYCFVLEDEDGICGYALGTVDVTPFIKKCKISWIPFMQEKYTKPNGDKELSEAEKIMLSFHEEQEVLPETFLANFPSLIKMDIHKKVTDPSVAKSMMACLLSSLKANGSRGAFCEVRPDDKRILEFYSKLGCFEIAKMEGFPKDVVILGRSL", "UniProt O43683": "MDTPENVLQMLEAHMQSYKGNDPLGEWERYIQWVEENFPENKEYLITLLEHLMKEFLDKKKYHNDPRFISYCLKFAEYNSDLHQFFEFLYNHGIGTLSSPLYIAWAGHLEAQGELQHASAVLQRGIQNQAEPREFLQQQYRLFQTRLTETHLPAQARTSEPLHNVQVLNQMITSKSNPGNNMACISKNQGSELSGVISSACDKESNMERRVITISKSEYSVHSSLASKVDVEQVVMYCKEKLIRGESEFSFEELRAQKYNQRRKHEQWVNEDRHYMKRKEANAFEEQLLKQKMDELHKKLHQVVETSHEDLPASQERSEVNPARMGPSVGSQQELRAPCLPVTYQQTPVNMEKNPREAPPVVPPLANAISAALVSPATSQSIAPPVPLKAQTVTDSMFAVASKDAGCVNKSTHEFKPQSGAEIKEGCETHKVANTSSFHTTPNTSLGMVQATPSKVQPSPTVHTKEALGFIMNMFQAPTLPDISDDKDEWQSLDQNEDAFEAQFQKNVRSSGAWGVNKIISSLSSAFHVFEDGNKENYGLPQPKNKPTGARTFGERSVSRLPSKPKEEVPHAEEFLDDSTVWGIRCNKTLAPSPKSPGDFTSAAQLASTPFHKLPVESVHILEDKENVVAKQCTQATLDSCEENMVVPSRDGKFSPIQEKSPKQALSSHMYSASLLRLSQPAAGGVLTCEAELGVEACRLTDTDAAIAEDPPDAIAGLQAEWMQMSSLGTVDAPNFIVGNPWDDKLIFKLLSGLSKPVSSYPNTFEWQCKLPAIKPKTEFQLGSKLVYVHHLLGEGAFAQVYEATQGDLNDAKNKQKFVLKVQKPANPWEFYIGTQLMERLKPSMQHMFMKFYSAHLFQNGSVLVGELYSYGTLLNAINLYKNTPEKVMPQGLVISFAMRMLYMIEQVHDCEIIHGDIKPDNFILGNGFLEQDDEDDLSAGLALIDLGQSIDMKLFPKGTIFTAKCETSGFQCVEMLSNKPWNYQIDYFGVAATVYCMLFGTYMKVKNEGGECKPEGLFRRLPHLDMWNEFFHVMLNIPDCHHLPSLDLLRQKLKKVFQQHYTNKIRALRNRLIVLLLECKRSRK", "UniProt O60664": "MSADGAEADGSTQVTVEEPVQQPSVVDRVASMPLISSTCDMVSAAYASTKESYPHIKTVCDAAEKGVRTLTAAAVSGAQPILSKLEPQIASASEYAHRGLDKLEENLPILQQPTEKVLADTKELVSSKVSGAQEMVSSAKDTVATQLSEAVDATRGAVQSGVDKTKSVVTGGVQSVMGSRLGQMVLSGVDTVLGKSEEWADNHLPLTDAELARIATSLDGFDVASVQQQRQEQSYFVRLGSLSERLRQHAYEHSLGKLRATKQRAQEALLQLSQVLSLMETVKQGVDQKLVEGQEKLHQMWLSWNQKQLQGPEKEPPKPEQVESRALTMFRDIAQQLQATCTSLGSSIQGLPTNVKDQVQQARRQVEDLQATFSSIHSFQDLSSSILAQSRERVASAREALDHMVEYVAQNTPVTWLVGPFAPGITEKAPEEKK", "UniProt O60307": "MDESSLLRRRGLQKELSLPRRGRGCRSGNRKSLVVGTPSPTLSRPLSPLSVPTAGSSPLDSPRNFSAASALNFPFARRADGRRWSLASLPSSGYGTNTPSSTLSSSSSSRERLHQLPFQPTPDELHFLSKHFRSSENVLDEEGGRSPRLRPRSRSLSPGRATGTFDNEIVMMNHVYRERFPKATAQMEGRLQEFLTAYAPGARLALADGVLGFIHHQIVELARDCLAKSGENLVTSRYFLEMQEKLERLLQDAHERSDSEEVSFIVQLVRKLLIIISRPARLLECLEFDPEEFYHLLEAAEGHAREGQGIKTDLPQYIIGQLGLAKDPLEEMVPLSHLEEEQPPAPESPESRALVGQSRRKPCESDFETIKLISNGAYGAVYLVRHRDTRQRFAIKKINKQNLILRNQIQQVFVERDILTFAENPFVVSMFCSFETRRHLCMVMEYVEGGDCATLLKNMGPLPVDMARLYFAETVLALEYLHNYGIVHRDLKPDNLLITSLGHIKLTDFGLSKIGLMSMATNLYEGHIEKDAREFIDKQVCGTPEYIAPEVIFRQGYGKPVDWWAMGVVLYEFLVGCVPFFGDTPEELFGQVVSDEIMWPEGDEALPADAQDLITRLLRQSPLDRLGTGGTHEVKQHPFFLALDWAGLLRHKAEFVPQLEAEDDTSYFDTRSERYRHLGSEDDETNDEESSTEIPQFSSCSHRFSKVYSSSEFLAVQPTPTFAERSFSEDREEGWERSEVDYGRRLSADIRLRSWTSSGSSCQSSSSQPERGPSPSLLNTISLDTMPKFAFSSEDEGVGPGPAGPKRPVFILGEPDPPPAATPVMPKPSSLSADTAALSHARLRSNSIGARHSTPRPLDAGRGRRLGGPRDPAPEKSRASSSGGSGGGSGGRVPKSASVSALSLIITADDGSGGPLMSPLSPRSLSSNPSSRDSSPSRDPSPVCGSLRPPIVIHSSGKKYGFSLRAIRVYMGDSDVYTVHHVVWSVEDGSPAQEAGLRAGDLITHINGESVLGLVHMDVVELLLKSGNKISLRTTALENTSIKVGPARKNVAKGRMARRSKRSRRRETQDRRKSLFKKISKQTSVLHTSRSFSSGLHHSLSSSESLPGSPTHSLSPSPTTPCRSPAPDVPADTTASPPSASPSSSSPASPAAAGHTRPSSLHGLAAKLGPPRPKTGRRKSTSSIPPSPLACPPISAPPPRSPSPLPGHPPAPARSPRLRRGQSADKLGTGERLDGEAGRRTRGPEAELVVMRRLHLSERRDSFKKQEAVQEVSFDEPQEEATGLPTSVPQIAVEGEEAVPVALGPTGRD", "UniProt O75145": "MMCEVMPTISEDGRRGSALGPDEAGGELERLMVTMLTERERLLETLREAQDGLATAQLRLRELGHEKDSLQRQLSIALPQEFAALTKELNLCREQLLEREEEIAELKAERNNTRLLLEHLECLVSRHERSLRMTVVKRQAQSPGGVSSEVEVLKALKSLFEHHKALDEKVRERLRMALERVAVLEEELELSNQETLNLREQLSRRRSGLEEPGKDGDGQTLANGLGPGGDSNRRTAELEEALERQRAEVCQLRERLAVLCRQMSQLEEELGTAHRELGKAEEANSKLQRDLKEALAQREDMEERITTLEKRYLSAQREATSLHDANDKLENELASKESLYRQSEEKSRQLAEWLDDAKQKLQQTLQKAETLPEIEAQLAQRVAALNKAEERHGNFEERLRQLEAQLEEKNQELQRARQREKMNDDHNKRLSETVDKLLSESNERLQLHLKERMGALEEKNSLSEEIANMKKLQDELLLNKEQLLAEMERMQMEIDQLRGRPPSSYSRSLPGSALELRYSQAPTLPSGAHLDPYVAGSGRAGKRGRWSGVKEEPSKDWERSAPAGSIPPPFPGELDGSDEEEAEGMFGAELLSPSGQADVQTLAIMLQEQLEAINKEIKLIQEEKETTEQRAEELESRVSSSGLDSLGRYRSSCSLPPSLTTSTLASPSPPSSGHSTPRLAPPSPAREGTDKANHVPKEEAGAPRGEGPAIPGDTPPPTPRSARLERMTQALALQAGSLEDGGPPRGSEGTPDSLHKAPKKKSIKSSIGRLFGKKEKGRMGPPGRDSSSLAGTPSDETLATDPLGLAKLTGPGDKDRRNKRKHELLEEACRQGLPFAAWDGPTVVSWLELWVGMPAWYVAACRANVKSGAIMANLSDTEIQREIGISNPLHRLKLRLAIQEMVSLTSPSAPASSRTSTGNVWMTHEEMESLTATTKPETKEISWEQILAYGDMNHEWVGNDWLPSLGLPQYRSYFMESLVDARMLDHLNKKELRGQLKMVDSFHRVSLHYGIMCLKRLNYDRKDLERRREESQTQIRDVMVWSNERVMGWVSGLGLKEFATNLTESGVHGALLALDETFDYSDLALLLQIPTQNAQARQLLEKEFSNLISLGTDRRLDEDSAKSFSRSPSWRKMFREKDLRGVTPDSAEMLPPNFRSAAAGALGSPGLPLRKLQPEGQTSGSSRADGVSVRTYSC"},
  "source": "the supplement of paper PMC12819154",
  "about": "“High-throughput peptide-centric local stability assay extends protein–ligand identification to membrane proteins, tissues and bacteria” (Nature Structural & Molecular Biology, 2025)",
  "note": "Some of the results follow. Most entries show no effect beyond the scatter of the controls.",
  "data": [
    {"compound": "CN[C@@H]1C[C@H]2O[C@@](C)([C@@H]1OC)n1c3ccccc3c3c4c(c5c6ccccc6n2c5c31)C(=O)NC4 [staurosporine]", "experiment": "log2 fold change of tryptic peptide abundance, ligand vs vehicle (limited proteolysis) (log2 ratio); higher = more trypsin-susceptible (destabilized)", "details": "ligand concentration: 20 uM; sample: K562 cleared lysate; digestion: 4 min, 22 C (HT-PELSA RT4min, Orbitrap Astral)", "values": [
      {"target": "EEF1E1 (peptide sequence: VTQVDGHSSK, peptide start residue: 79) (UniProt O43324)", "log2 fold change": 0.381},
      {"target": "MSH5 (peptide sequence: ASHASHTAAQAGLPDKLVAR, peptide start residue: 751) (UniProt O43196)", "log2 fold change": -0.357},
      {"target": "EIF1B (peptide sequence: TLTTVQGIADDYDKKK, peptide start residue: 43) (UniProt O60739)", "log2 fold change": -0.0973},
      {"target": "WDR1 (peptide sequence: YTSLMLR, peptide start residue: 390) (UniProt O75083)", "log2 fold change": -0.389},
      {"target": "RRP9 (peptide sequence: GKPASGAGAGAGAGKR, peptide start residue: 11) (UniProt O43818)", "log2 fold change": 0.155},
      {"target": "FIBP (peptide sequence: LWLDGYSVTDAVALR, peptide start residue: 22) (UniProt O43427)", "log2 fold change": 0.499},
      {"target": "UniProt O60502 (peptide sequence: YTKPNGDKELSEAEK, peptide start residue: 805)", "log2 fold change": 0.194},
      {"target": "ZBTB24 (peptide sequence: YNHFLAIHQR, peptide start residue: 305) (UniProt O43167)", "log2 fold change": -0.386},
      {"target": "ZC3H11A (peptide sequence: VNVKPSVVK, peptide start residue: 651) (UniProt O75152)", "log2 fold change": 0.218},
      {"target": "OIP5 (peptide sequence: AIVNASEMDIQNVPLSEK, peptide start residue: 178) (UniProt O43482)", "log2 fold change": -0.179},
      {"target": "BUB1 (peptide sequence: NQGSELSGVISSACDKESNMERR, peptide start residue: 188) (UniProt O43683)", "log2 fold change": -0.233},
      {"target": "UniProt O60664 (peptide sequence: QHAYEHSLGK, peptide start residue: 248)", "log2 fold change": 0.314},
      {"target": "NDUFS4 (peptide sequence: NGWSYDIEER, peptide start residue: 141) (UniProt O43181)", "log2 fold change": 0.141},
      {"target": "MGRN1 (peptide sequence: PVQFPYVTPAPHEPVK, peptide start residue: 67) (UniProt O60291)", "log2 fold change": 0.185},
      {"target": "CCNT2 (peptide sequence: TEQLYSQK, peptide start residue: 360) (UniProt O60583)", "log2 fold change": 0.186},
      {"target": "SIN3B (peptide sequence: EIDYASCK, peptide start residue: 388) (UniProt O75182)", "log2 fold change": -0.32},
      {"target": "UniProt O60610 (peptide sequence: NKHEIIR, peptide start residue: 213)", "log2 fold change": 0.566},
      {"target": "UniProt O75072 (peptide sequence: NGAGLSK, peptide start residue: 36)", "log2 fold change": -0.397},
      {"target": "BRD4 (peptide sequence: PVIRPPEQNAPPPGAPDKDK, peptide start residue: 1160) (UniProt O60885)", "log2 fold change": 1.1},
      {"target": "STRN (peptide sequence: KALPDSGEDRDTK, peptide start residue: 270) (UniProt O43815)", "log2 fold change": -0.524},
      {"target": "MAST3 (peptide sequence: SSENVLDEEGGR, peptide start residue: 134) (UniProt O60307)", "log2 fold change": 0.322},
      {"target": "AKAP10 (peptide sequence: TLRPDPGPAMSFFR, peptide start residue: 14) (UniProt O43572)", "log2 fold change": 0.367},
      {"target": "PPFIA3 (peptide sequence: NSLSEEIANMKK, peptide start residue: 460) (UniProt O75145)", "log2 fold change": 0.513},
      {"target": "HIP1R (peptide sequence: DGHPNVLHDCQR, peptide start residue: 96) (UniProt O75146)", "log2 fold change": 0.646},
      {"target": "NCOR1 (peptide sequence: LPTTRPTRPPPPLIPSSK, peptide start residue: 1024) (UniProt O75376)", "log2 fold change": 0.386},
      {"target": "NDUFS2 (peptide sequence: NITLNFGPQHPAAHGVLR, peptide start residue: 79) (UniProt O75306)", "log2 fold change": -0.168},
      {"target": "RNGTT (peptide sequence: LLEGNFAK, peptide start residue: 424) (UniProt O60942)", "log2 fold change": 0.767},
      {"target": "PHLPP1 (peptide sequence: MEPAAAATVQR, peptide start residue: 1) (UniProt O60346)", "log2 fold change": 0.416}
    ]}
  ]
}
